Data taken from PubChem BioAssay AID192 (DTP/NCI, 2004).
The list does not hold the whole screen: it is rich in T/C values a quarter to a half above the control, in often repeated tests (any T/C) and in doses without a T/C. Further doses and runs are listed elsewhere. T/C is the treated group as % of the vehicle group. Some entries give survivors of the animals treated and no T/C: the source files T/C as zero there, which appears to mark a toxic dose or a test without result, not a measured value. Some survivor counts are full or nearly so, which does not show that the dose was tolerated: the source hardly ever lists a survival T/C far under the control, and the zero likely stands for such cases as well. Survivors were counted at the toxicity check, usually on the fifth day, unless a day is given; later deaths do not show. Schedule codes are those of the source, taken here to give the interval after Q, in days (D) or hours (H), and the number of doses after X. Some entries hold several experiments; the results are listed from low to high. Some structures stand for samples that the source files as different forms (salt, stereo form or complex); doses refer to the form tested. Where survival is the endpoint, the PubChem record calls one and a half times the control and up active, and a quarter to a half above the control has no call in these data; cut-offs in other NCI protocols can differ. Some T/C values carry the count of animals alive at the toxicity check (mostly the fifth day); where none is given, no animal had died by that day. Square brackets hold non-standard residues; d marks the D form. Peptide text beside a SMILES is read from it. * marks the point of attachment. ξ: configuration not given here. Nle = CCCC[CH](N)C(=O)O; Cbz = O=C(OCc1ccccc1)*; ξK = NCCCCC(N)C(=O)O

Tested on: BDF1 mice, B16 melanoma ip, median survival T/C
Assay: NCI In Vivo Anticancer Drug Screen. Data for tumor model B16 Melanoma (intraperitoneal) in B6D2F1 (BDF1) mice
Settings: T/C endpoint: median survival time, higher T/C = longer survival
Method in brief: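 Each result divides a survival or tumor-size measurement in the compound-treated group by the same measurement in the vehicle group.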

[1] = dose: 32.0 mg/kg/injection, schedule: Q01DX009 (ip), vehicle: saline with Tween-80
[2] = dose: 50.0 mg/kg/injection, schedule: Q01DX009 (ip), vehicle: Klucel (hydroxypropylcellulose) (HPC)
[3] = dose: 100.0 mg/kg/injection, schedule: Q01DX009 (ip), vehicle: Klucel (hydroxypropylcellulose) (HPC)
[4] = dose: 200.0 mg/kg/injection, schedule: Q01DX009 (ip), vehicle: Klucel (hydroxypropylcellulose) (HPC)
[5] = dose: 400.0 mg/kg/injection, schedule: Q01DX009 (ip), vehicle: Klucel (hydroxypropylcellulose) (HPC)
[6] = dose: 25.0 mg/kg/injection, schedule: Q01DX009 (ip), vehicle: saline with Tween-80
[7] = dose: 50.0 mg/kg/injection, schedule: Q01DX009 (ip), vehicle: saline with Tween-80

Question: Which results are given for C[n+]1ccc(Nc2ccc(NC(=O)c3ccc(Nc4cc[n+](C)c5ccc(N)cc45)cc3N)cc2)cc1?
Answer: survivor count (dose: 25.0 mg/kg/injection, schedule: Q01DX009 (ip), vehicle: saline): 6 of 6; survivor count [1]: 10 of 10; survivor count [2]: 7 of 10; survivor count (dose: 50.0 mg/kg/injection, schedule: Q01DX009 (ip), vehicle: saline): 6 of 6; survivor count (dose: 64.0 mg/kg/injection, schedule: Q02DX009 (ip), vehicle: Klucel (hydroxypropylcellulose) (HPC)): 8 of 10 and 9 of 10; survivor count [3]: 4 of 10; survivor count (dose: 100.0 mg/kg/injection, schedule: Q01DX009 (ip), vehicle: saline): 1 of 6

Question: Which results are given for CC(=O)C(Cl)C(=O)c1c(C)[nH]n(-c2ccccc2)c1=O (stereo unspecified)?
Answer: survivor count [3]: 8 of 10; survivor count [4]: 6 of 10; survivor count [5]: 0 of 10

Question: For CN(C)CCCN1c2ccccc2Sc2ccc(Cl)cc21, which survivor count (dose: 4.0 mg/kg/injection, schedule: Q01DX009 (ip), vehicle: saline) is on record?
Answer: Its survivor count is 10 of 10.

Question: What about the survivor count (dose: 8.0 mg/kg/injection, schedule: Q01DX009 (ip), vehicle: saline) of the same compound?
Answer: Its survivor count is 10 of 10.

Question: And the survivor count (dose: 16.0 mg/kg/injection, schedule: Q01DX009 (ip), vehicle: saline)?
Answer: The survivor count was 4 of 10 and 9 of 10.

Question: And the survivor count (dose: 18.75 mg/kg/injection, schedule: Q01DX009 (ip), vehicle: saline)?
Answer: The survivor count was 6 of 10.

Question: And the survivor count (dose: 32.0 mg/kg/injection, schedule: Q01DX009 (ip), vehicle: saline)?
Answer: Its survivor count is 0 of 10 and 1 of 10.

Question: And the survivor count (dose: 37.5 mg/kg/injection, schedule: Q01DX009 (ip), vehicle: saline)?
Answer: The survivor count was 0 of 10.

Question: What about the survivor count (dose: 75.0 mg/kg/injection, schedule: Q01DX009 (ip), vehicle: saline) of the same compound?
Answer: The survivor count was 0 of 10.

Question: CCN(CC)CCOCCO was tested. Which survivor count (dose: 400.0 mg/kg/injection, schedule: Q01DX009 (ip), vehicle: suspension in saline) did it give?
Answer: The survivor count was 9 of 10.

Question: What does the source list for [N-]=[N+]=C1N=CN=C1c1ncn[nH]1?
Answer: T/C (dose: 12.5 mg/kg/injection, schedule: Q01DX009 (ip), vehicle: carboxymethylcellulose (CMC)): 126 % of control; T/C (dose: 25.0 mg/kg/injection, schedule: Q01DX009 (ip), vehicle: carboxymethylcellulose (CMC)): 143 % of control; T/C (dose: 50.0 mg/kg/injection, schedule: Q01DX009 (ip), vehicle: carboxymethylcellulose (CMC)): 126 % of control; survivor count (dose: 100.0 mg/kg/injection, schedule: Q01DX009 (ip), vehicle: carboxymethylcellulose (CMC)): 3 of 10

Question: CCN(CC)CCOC(=O)c1ccc(N)cc1 was tested. Which survivor count (dose: 200.0 mg/kg/injection, schedule: Q01DX009 (ip), vehicle: saline) did it give?
Answer: The survivor count was 2 of 10.

Question: And the survivor count (dose: 400.0 mg/kg/injection, schedule: Q01DX009 (ip), vehicle: saline)?
Answer: Its survivor count is 0 of 10.

Question: With Cc1c(Cl)cccc1NC(=O)c1ccccc1C(=O)O as the compound, how does the survivor count [5] read?
Answer: The survivor count was 9 of 10.

Question: Which survivor count [2] does the source give for CCOC(=O)/C(C(C)=O)=C(/O)c1ccc(OC(F)(F)C(F)Cl)cc1OC(F)(F)C(F)Cl.CCOC(=O)/C(C(C)=O)=C(/O)c1ccc(OC(F)(F)C(F)Cl)cc1OC(F)(F)C(F)Cl.[Cu] (stereo unspecified) here?
Answer: The survivor count was 10 of 10.

Question: What about the survivor count [3] of the same compound?
Answer: The survivor count was 10 of 10.

Question: What about the survivor count [4] of the same compound?
Answer: Its survivor count is 3 of 10.

Question: And the survivor count [5]?
Answer: Its survivor count is 0 of 10.

Question: With COc1cccc2c1C(=O)c1c(O)c3c(c(O)c1C2=O)C[C@@](O)(C(C)=O)C[C@@H]3OC1CC(N(Cc2ccccc2)Cc2ccccc2)C(O)C(C)O1 (stereo partly specified) as the compound, how does the T/C (dose: 25.0 mg/kg/injection, schedule: Q01DX001 (ip), vehicle: water) read?
Answer: The T/C was 130 % of control.

Question: And the T/C (dose: 100.0 mg/kg/injection, schedule: Q01DX001 (ip), vehicle: water)?
Answer: The T/C was 146 % of control.

Question: What about the survivor count (dose: 200.0 mg/kg/injection, schedule: Q01DX001 (ip), vehicle: water) of the same compound?
Answer: The survivor count was 9 of 10 and 10 of 10.

Question: What about the survivor count (dose: 400.0 mg/kg/injection, schedule: Q01DX001 (ip), vehicle: water) of the same compound?
Answer: Its survivor count is 7 of 10.

Question: With COc1ccc(N=NNc2ccc(OC)cc2)cc1 as the compound, how does the T/C (dose: 25.0 mg/kg/injection, schedule: Q04DX003 (ip), vehicle: saline with Tween-80) read?
Answer: Its T/C is 128 % of control.

Question: CCC[CH2][Sn]1([CH2]CCC)[S]CC[N]1S(=O)(=O)c1ccc(C)cc1 was tested. Which survivor count [6] did it give?
Answer: Its survivor count is 9 of 10.

Question: And the survivor count [7]?
Answer: Its survivor count is 0 of 10.

Question: Which survivor count (dose: 3.0 mg/kg/injection, schedule: Q01DX009 (ip), vehicle: Klucel (hydroxypropylcellulose) (HPC)) does the source give for CCS/C(SC)=C(/c1ccccc1)[P+](c1ccccc1)(c1ccccc1)c1ccccc1 here?
Answer: Its survivor count is 3 of 10 and 10 of 10.

Question: What about the survivor count (dose: 6.0 mg/kg/injection, schedule: Q01DX009 (ip), vehicle: Klucel (hydroxypropylcellulose) (HPC)) of the same compound?
Answer: Its survivor count is 0 of 10.

Question: And the survivor count (dose: 12.0 mg/kg/injection, schedule: Q01DX009 (ip), vehicle: Klucel (hydroxypropylcellulose) (HPC))?
Answer: The survivor count was 1 of 10.

Question: What about the survivor count (dose: 24.0 mg/kg/injection, schedule: Q01DX009 (ip), vehicle: Klucel (hydroxypropylcellulose) (HPC)) of the same compound?
Answer: Its survivor count is 2 of 10.

Question: Which T/C (dose: 0.05 mg/kg/injection, schedule: Q01DX009 (ip), vehicle: saline with Tween-80) does the source give for COC(=O)C12OCC34C(CC5C(C)=C(O)C(=O)CC5(C)C3C(O)C1O)OC(=O)C(OC(=O)/C=C(\C)C(C)(C)O)C24 (stereo unspecified) here?
Answer: The T/C was 130 % of control [9 of 10 alive].

Question: And the T/C (dose: 0.05 mg/kg/injection, schedule: Q01DX009 (ip), vehicle: saline)?
Answer: Its T/C is 133 % of control.

Question: What about the T/C (dose: 0.1 mg/kg/injection, schedule: Q01DX009 (ip), vehicle: saline with Tween-80) of the same compound?
Answer: Its T/C is 139 % of control.

Question: What about the T/C (dose: 0.1 mg/kg/injection, schedule: Q01DX009 (ip), vehicle: saline) of the same compound?
Answer: Its T/C is 125 % of control.

Question: What about the T/C (dose: 0.2 mg/kg/injection, schedule: Q01DX009 (ip), vehicle: saline with Tween-80) of the same compound?
Answer: The T/C was 140 and 147 % of control.

Question: What about the T/C (dose: 0.4 mg/kg/injection, schedule: Q01DX009 (ip), vehicle: saline with Tween-80) of the same compound?
Answer: Its T/C is 144 % of control.

Question: And the T/C (dose: 0.8 mg/kg/injection, schedule: Q01DX009 (ip), vehicle: saline with Tween-80)?
Answer: Its T/C is 140 % of control.

Question: And the T/C (dose: 0.8 mg/kg/injection, schedule: Q01DX009 (ip), vehicle: saline)?
Answer: Its T/C is 147 % of control.

Question: How did the survivor count (dose: 200.0 mg/kg/injection, schedule: Q01DX009 (ip), vehicle: saline with Tween-80) turn out when CCCCC(NC(=O)C(Cc1ccccc1)NC(=O)OCc1ccccc1)C(=O)O (stereo not drawn) (Cbz-Phe-[Nle]-OH; configuration not given here) was run?
Answer: Its survivor count is 10 of 10.

Question: What about the survivor count (dose: 400.0 mg/kg/injection, schedule: Q01DX009 (ip), vehicle: saline with Tween-80) of the same compound?
Answer: Its survivor count is 10 of 10.

Question: Which survivor count (dose: 2.5 mg/kg/injection, schedule: Q01DX009 (ip), vehicle: saline with Tween-80) does the source give for COc1ccccc1N1C(=O)C=CC1=O here?
Answer: Its survivor count is 10 of 10.

Question: And the survivor count (dose: 5.0 mg/kg/injection, schedule: Q01DX009 (ip), vehicle: saline with Tween-80)?
Answer: The survivor count was 10 of 10.

Question: What about the survivor count (dose: 10.0 mg/kg/injection, schedule: Q01DX009 (ip), vehicle: saline with Tween-80) of the same compound?
Answer: Its survivor count is 10 of 10.

Question: How did the survivor count [3] turn out when N/C(=N\N=C\c1ccc(-c2ccccc2)cc1)N[N+](=O)[O-] was run?
Answer: Its survivor count is 10 of 10.

Question: What about the survivor count [5] of the same compound?
Answer: Its survivor count is 10 of 10.

Question: How did the survivor count [1] turn out when O=C(Nc1ccc(C2=NCCN2)cc1)c1ccc(C(=O)Nc2ccc(C3=NCCN3)cc2)c(Cl)c1 was run?
Answer: The survivor count was 2 of 6.

Question: And the survivor count [7]?
Answer: The survivor count was 0 of 10.

Question: What about the survivor count (dose: 64.0 mg/kg/injection, schedule: Q01DX009 (ip), vehicle: saline with Tween-80) of the same compound?
Answer: The survivor count was 0 of 6.

Question: And the survivor count (dose: 100.0 mg/kg/injection, schedule: Q01DX009 (ip), vehicle: saline with Tween-80)?
Answer: The survivor count was 0 of 10.

Question: For Cc1[nH]ccc2c(C)c3nc4ccccc4c3cc12, which T/C (dose: 6.25 mg/kg/injection, schedule: Q01DX009 (ip), vehicle: Klucel (hydroxypropylcellulose) (HPC)) is on record?
Answer: The T/C was 140 % of control.

Question: And the T/C (dose: 12.5 mg/kg/injection, schedule: Q01DX009 (ip), vehicle: Klucel (hydroxypropylcellulose) (HPC))?
Answer: Its T/C is 148 % of control.

Question: What about the T/C [2] of the same compound?
Answer: The T/C was 148 % of control.

Question: Which T/C (dose: 22.0 mg/kg/injection, schedule: Q01DX009 (ip), vehicle: Klucel (hydroxypropylcellulose) (HPC)) does the source give for [I][Pt+2][I].[NH-]CC[NH-] here?
Answer: The T/C was 140 % of control.

Question: And the survivor count (dose: 44.0 mg/kg/injection, schedule: Q01DX009 (ip), vehicle: Klucel (hydroxypropylcellulose) (HPC))?
Answer: The survivor count was 4 of 10.

Question: For NCC(=O)NC(CCCCNC(=O)OCc1ccccc1)C(=O)O (stereo unspecified) (H-Gly-[ξK](Cbz)-OH), which survivor count (dose: 12.5 mg/kg/injection, schedule: Q01DX009 (ip), vehicle: saline with Tween-80) is on record?
Answer: The survivor count was 2 of 10.

Question: What about the survivor count [6] of the same compound?
Answer: Its survivor count is 0 of 10.
